Measurements published in paper PMC11180178.
Results are given in words; binding and its absence hold for the method and conditions named. In cells and extracts the contact can be indirect. Some results given as binding are weak or reduced against the parent protein; the word gives no strength. For some of these results: Tags and fused reporters may be left off the sequences shown.

Amino acid sequences for entries named in this document (tags omitted). Residues count along the entry.
UniProt P30532, residues 23-468: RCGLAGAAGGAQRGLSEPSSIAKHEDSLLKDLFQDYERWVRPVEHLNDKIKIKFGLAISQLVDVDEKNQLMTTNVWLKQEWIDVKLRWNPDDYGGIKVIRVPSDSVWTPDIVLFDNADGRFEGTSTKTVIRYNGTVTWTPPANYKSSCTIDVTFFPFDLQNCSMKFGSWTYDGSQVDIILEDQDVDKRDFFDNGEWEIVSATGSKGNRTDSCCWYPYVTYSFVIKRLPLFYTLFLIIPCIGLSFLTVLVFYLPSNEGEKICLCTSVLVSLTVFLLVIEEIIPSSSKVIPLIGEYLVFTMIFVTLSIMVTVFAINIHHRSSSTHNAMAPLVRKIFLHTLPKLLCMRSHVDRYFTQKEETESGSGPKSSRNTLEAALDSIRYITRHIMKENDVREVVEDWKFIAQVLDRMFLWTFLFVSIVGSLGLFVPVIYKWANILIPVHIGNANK

T1: HA-labelled RABL6 (UniProt Q3YEC7)
T1 sequence: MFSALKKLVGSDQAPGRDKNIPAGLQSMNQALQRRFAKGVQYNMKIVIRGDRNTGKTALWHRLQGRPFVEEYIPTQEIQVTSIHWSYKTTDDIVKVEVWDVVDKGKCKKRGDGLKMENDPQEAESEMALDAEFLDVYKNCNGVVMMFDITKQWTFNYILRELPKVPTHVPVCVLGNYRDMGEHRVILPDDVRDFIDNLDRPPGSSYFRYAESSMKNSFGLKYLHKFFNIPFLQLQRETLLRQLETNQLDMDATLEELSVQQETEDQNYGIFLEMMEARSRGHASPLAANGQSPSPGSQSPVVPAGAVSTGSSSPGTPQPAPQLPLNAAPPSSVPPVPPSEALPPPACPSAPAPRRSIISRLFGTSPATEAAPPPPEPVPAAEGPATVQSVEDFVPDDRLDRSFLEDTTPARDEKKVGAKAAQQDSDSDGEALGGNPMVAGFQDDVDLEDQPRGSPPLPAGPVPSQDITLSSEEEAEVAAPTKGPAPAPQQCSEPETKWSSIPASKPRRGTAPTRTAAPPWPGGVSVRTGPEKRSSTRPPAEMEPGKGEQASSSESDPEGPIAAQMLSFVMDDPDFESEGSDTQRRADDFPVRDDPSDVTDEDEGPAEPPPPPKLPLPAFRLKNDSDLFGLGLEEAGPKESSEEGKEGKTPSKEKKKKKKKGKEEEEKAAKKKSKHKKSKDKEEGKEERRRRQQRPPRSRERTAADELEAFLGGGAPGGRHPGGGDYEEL

B1: HA-labelled RABL6 (protein, UniProt Q3YEC7 1-729)
chain: T1 sequence
B2: RABL6-39-279aa (domain or fragment, UniProt Q3YEC7 39-279)
chain: GVQYNMKIVIRGDRNTGKTALWHRLQGRPFVEEYIPTQEIQVTSIHWSYKTTDDIVKVEVWDVVDKGKCKKRGDGLKMENDPQEAESEMALDAEFLDVYKNCNGVVMMFDITKQWTFNYILRELPKVPTHVPVCVLGNYRDMGEHRVILPDDVRDFIDNLDRPPGSSYFRYAESSMKNSFGLKYLHKFFNIPFLQLQRETLLRQLETNQLDMDATLEELSVQQETEDQNYGIFLEMMEARS
B3: RABL6 (protein, UniProt Q3YEC7 1-729)
chain: T1 sequence

Key:
HA-labelled RABL6 = target: T1, HA-labelled RABL6; test: co-IP; CHRNA5 co-transfected with HA-labelled RABL6, RABL6-39-279aa or RABL6-281-729aa into 293 T cells; lysates precipitated with anti-HA or anti-CHRNA5 antibodies
CHRNA5 in 293 T cells = CHRNA5 in 293 T cells (UniProt P30532); test: as above
[1] = target: cholinergic receptor nicotinic alpha 5 subunit (CHRNA5) (human (endogenous in AMC-HN8 and FD-LSC-1)) (UniProt P30532); test: co-IP; endogenous proteins; whole-cell extracts of AMC-HN8 and FD-LSC-1 cells (sh-NC and sh-CHRNA5); primary antibody and protein A/G beads overnight at 4 °C; IgG as negative control; western blot

Molecule | binding (CHRNA5 in 293 T cells) | also measured
CHRNA5 in 293 T cells (from UniProt P30532 23-468) (receptor) | – | binding (HA-labelled RABL6): binds
B1 | binds | –
B2 | binds | –
B3 | – | binding [1]: binds
